In PubChem BioAssay AID1347423 (Functional Genomics Laboratory (NCATS/FGL), 2020) one finds z-score data, which are given here for 104 sequences.

The whole screen tested about 52,000 sequences, of which about 210 (0.4%) were called active.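 How the source made its calls: active means gene whose silencing raises cell survival under the drug, median off-target-corrected z-score across its silencing RNAs 2 or more; inactive means the rest.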 Some of the results follow.

The assay can be described thus: Resistance to Poly (ADP-Ribose) Polymerase inhibitor: Gene Identification via Genome-wide siRNA Screen. To be noted: mouse BRCA2 R2336H ES cells, olaparib, CellTiter-Glo viability; stronger effect = higher value. The source says:
The role of Poly (ADP-Ribose) Polymerase (PARP) proteins in DNA repair has been elegantly utilized for the synthetic lethality-based treatment of BRCA-deficient tumors by PARP inhibitors. PARP inhibitors are now being used for treatment of BRCA-deficient breast and ovarian cancers. […] While several mechanisms of drug resistance have been identified, majority of these tumors develop drug resistance due to unknown causes. To identified novel regulators of chemo-resistance in BRCA2-mutated cells, we performed a genome wide siRNA library screen. We have found ES cells expressing a hypomorphic allele of BRCA2 to be hypersensitive to PAPP inhibitors (such as olaparib). We used ES cells expressing a mutant allele of BRCA2 that has a single amino acid substitution at position 2336 (arginine to histidine, R2336H). The screen was conducted using an Ambion (Thermo) Silencer Mouse Genome siRNA collection. The library targets 17,575 mouse genes with 3 siRNAs per gene. TET2 (E130014J05Rik) was identified as a top candidate.
Transfections were performed in 384 well plates (Corning 3707). Plates were coated with 0.1% gelatin in H2O overnight at ambient temperature. Gelatin solution was aspirated (BioTek EL406) and siRNAs were printed using a Bravo VPrep liquid handler integrated within a BioCel automation platform (Agilent). Cell viability was measured using CellTiter Glo (Promega). For transfections, […] of serum free media containing Lipofectamine RNAiMax […] was added to wells containing siRNA (0.8pmol). Lipid and siRNA were allowed to complex for 45 min at ambient temperature before addition of 1000 cells in DMEM, 30% FBS to yield final transfection mixtures containing 20 nM siRNA in DMEM, 15% FBS. PARPi (olaparib, AZD2281) was added 48 h post-transfection (500 nM) and viability (CellTiter Glo, Promega) was assayed 72 h later on a PerkinElmer Envision 2104 Multilabel plate reader. Ambion Silencer Select Negative Control #2 was incorporated on all screening plates (16 wells) and the median negative control value on each plate was used for normalization. An siRNA targeting Trp53 was used as a positive control. This control yielded a median protective effect of ~1.9 fold versus negative control throughout the screen. The median absolute deviation (MAD) based z-score was calculated for each siRNA. Genes were then ranked by taking the median value for all siRNAs tested against a given gene. Scores were also adjusted for seed-based off-target effects to help deprioritize likely false positives.
As for GGAAAAGAAAGGAACACUGTT against Defb13, the z-score is inactive: -0.226.
Consider GGACUUCUUUUGAAUCGGATT against Pex14, for which the z-score is inactive: -0.655.
For the sequence GCUAAUGCACCAAUGUGAGTT against Pafah1b3, the z-score is inactive: -1.11.
The result for “CCCUCAGAUCUUUCAGUCUTT against E330040A16Rik” reads inactive: -1.2.
Turning to GCUAUCUCGGUGUCAACUUTT against Aqp7, the z-score is inactive: 2.03.
For the sequence “GGCUCCUCUCCAAGAAUAUTT against C330019G07Rik”, the z-score is inactive: -1.04.
Turning to CCAAUGUUUGAAUUCUUCGTT against Nudt1, the z-score was inactive: -0.322.
For GCCCUAUCCACCCAUUGAGTT against Hs3st1, the z-score was inactive: -1.41.
The result for “GGUGUUCUACUGUGCAUUATT against 9330132A10Rik” reads inactive: -0.505; that for GCUCAAAACGCACGUGAAGTT against Wrb, inactive: -0.106; that for GGUAUGGUAUUGUGUAUUUTT against Cyp2c38, inactive: -0.409.
Consider GGACAUCAUUACAAAGAUGTT against Rgs6, for which the z-score is inactive: -0.00923.
Take GGCAUGUUUCUACAUCUUATT against Rgs12: the z-score is inactive: 0.679.
For CGUGCACUGGAGAUUCCAUTT against Slc41a1, the z-score is inactive: -1.37.
With GCAAUGGUUCUCUUCAACCTT against Ppp3cb, the z-score was inactive: -0.712.
Consider GGAAGCGUGGAAGUCUACGTT against Kcnj16, for which the z-score is inactive: -0.609.
Take GGAAGAAUUUGACAACCGCTT against Mrps18c: the z-score was inactive: -0.103.
GCGUAAGCAGCAAGAUGGATT against Ash2l: the z-score is inactive: -1.26.
The result for “GCUGAGAAUCGUUUAAAUGTT against 2010321J07Rik” reads inactive: -0.924; that for CCCACUAAGAAACAAUCUATT against Gp1ba, inactive: 0.484; that for GGAUUCUUUCCAACAGAUUTT against Wwp2, inactive: -1.21.
The result for GGUCAUGGUUAUUUUGUUATT against AI194308 reads inactive: 0.18; that for GGAAAGAAAAAAGAUGGUCTT against Riok1, inactive: -1.05; that for CGCCACAGACAUUCAGUUATT against Sec23ip, inactive: -0.23.
Turning to GGUGCAAACAGACACCAGATT against Dct, the z-score was inactive: 0.552.
The result for GCGAACAGAAAAGACCAAUTT against Col4a5 reads inactive: 1.11; that for UGGACUUGCUUCUCACAUCTT against Olfr694, inactive: 2.1; that for “GGAUUGUGCUAACCUGCUGTT against 1600014C10Rik”, inactive: -0.419.
The result for “GGAGCUUAUAAGAAAUGGGTT against 9030221A05Rik” reads inactive: -0.119.
As for GGAAUAGUCAACUUGGUAUTT against Kntc2, the z-score is inactive: -3.08.
As for GGAGGAAGAAACAGACAUCTT against Nup37, the z-score is inactive: -2.03.
In the case of GCUUCAGGAUAUUGUAAAGTT against Olfr1459, the z-score is inactive: -0.943.
The result for GGCAACCAAAGUUAGUGUGTT against Ifi16 reads inactive: -0.238; that for GCUUGAAUGUUGAGUGGAGTT against Mup3, inactive: -0.377; that for GCUCAGAUGUAUGUAUUCATT against Olfr247, inactive: 3.79.
For GGCUUAGAGCUUCCUCUAATT against Adprhl1, the z-score was inactive: 0.6.
As for GCAGAUAGAGAUGAAGCUGTT against Phactr3, the z-score is inactive: 0.217.
Take “GGGAACUCAAAGAAGAGAGTT against 2210402C18Rik”: the z-score was inactive: -1.19.
As to “CCAAUUCCUCUCAAUGUCATT against 2310002B06Rik”, the z-score was inactive: -0.618.
In the case of CGUUGCUGGUCCAACAGAATT against BC032925, the z-score is inactive: -0.554.
Regarding GGAGGUUAUCAGAUAUGCATT against Edar, the z-score was inactive: 0.929.
Regarding GGUUCUCCGAACUCUGUUGTT against AW049900, the z-score is inactive: -1.88.
As for CGUGAAGAAAAACGGGUUUTT against Snrpn, the z-score was inactive: -1.24.
On to GGAUGAAGACGACUAUCCCTT against Lat, for which the z-score is inactive: 0.605.
The result for “GGUAUCCUGUAACUACUCUTT against D130020L05Rik” reads inactive: -1.48; that for “CCUGAAGGGUCUGGCAAAATT against C630007C17Rik”, inactive: -2.44; that for “GCACUAGCAGACUAGGUGATT against A630026F21Rik”, inactive: -0.263.
Consider “GCGAGAUUCUUGCUUACUCTT against 2310009N05Rik”, for which the z-score is inactive: -0.529.
For CGAGAUCUCCGUCGAGUAATT against Brf2, the z-score is inactive: -0.777.
The result for GGGAAUCUUCCGUUUAAGUTT against Pcdhga10 reads inactive: -0.344; that for GCUUACCUUUGGAUUCAAATT against Cd68, inactive: 1.91.
Regarding CGAAAGUACCAUGCCUACATT against Clecsf5, the z-score was inactive: -0.47.
GCGGGAACAAGUUGAUAGATT against Pspc1: the z-score was inactive: -0.734.
As to GGCUUUUAUCCCAACAGUGTT against Mbnl3, the z-score was inactive: -0.716.
Consider CCUUAUUCCACCCAUUUUCTT against Rai3, for which the z-score is inactive: 0.67.
As to ACAUUGUAAUUCUCACCGUTT against Olfr1322, the z-score is inactive: -0.285.
For the sequence GGCAGCUGAAAGAAGAUCUTT against Dffa, the z-score is inactive: 0.127.
GGACUAUUGUCUCAUUUGATT against Olfr1189: the z-score was inactive: 0.441.
The result for GGAAUGUCUCCUGUCUGUGTT against Pttg1ip reads inactive: -2.56; that for GGAAGUGAGGAACUGUGUCTT against Prodh2, inactive: 2.16.
The result for GGAUCAGCUUGUUCUCAGATT against Plpcd reads inactive: 0.408.
Take GGUCACAUCGUCCUUACAGTT against Rps6ka4: the z-score was inactive: -0.0463.
GGCUCAGAAAAUUGAUCGATT against Pscd2: the z-score is inactive: 1.11.
GGAAGCCAUGACAUUCAAGTT against Zfp286: the z-score is inactive: 1.43.
For the sequence GGCUACAGCAGGAGAAUCATT against BC038613, the z-score is inactive: -2.14.
On to GGAUAGUCUCAGUAACUAUTT against Grin2a, for which the z-score is inactive: -0.516.
For GGACCCUCCAACUGUAAAUTT against Gtl2, the z-score was inactive: -0.638.
On to GGAGGAUCAGUGAGAUUAATT against Wbp4, for which the z-score is inactive: -1.59.
On to UUAUGUGGCACAAAUAAAUTT against Olfr138, for which the z-score was inactive: -0.814.
In the case of GGACAAGAUGUUGAGUAUUTT against Plrg1, the z-score is inactive: -1.94.
Consider GGAUUGACAGUGGUCUAUATT against Copz1, for which the z-score was inactive: -3.11.
The result for GCCAACCUUCGUAAGACACTT against Dgkz reads inactive: 0.191; that for GGCAACCAUAGACGAUGAATT against Rerg, inactive: 0.934.
The result for GGUACAAACGUAAGGCCUATT against Leng1 reads inactive: 1.02; that for GGUCAUGUGUGGUUACAUUTT against Depdc5, inactive: -0.656; that for GGUGAGCAAAGCCAAGAAGTT against Sgpl1, inactive: -0.914.
On to GCCGAGCUUUUGUGAGUAUTT against Rhobtb2, for which the z-score was inactive: 0.769.
The result for GCUUCAGCGUGAAAAAGCCTT against AI467484 reads inactive: -0.382.
The result for “CCACAAAUAUGGUAGGUUCTT against 9030409E16Rik” reads inactive: -0.318; that for “CGGAGGAGAUAUUUAACCATT against 2810012L14Rik”, inactive: 0.0161; that for GCGAACUCCUCUUUAGGCATT against Chrng, active: -0.258.
With “GGAUUCUUGAAGCUGUUUUTT against 0610007H07Rik”, the z-score is inactive: 3.96.
Turning to GCUAAGUUCCAAGGCGACCTT against Serpinh1, the z-score was inactive: 0.41.
On to GCAGGCAUUCUGCUCUAUATT against Oxgr1, for which the z-score is inactive: 1.54.
“CCUUUUACUGCUCACCGACTT against 2810453L12Rik”: the z-score is inactive: -0.26.
As for GGACUCCAAGAUCAUGGUCTT against Pnck, the z-score was inactive: 0.263.
GCAAAUAGGAGCUAGCCCUTT against Met: the z-score was inactive: -0.301.
Regarding GGAAAUAGCUGAAGACAAATT against Tacc3, the z-score was inactive: -2.25.
As for “GGAAUAGGAUCUAAUCUAATT against 4930485D02Rik”, the z-score is inactive: -0.372.
The result for CCUUCAUGCAACCAGAGGUTT against Ptp4a3 reads inactive: 0.263.
GGAUGUGGAAACCACUAGGTT against Bst2: the z-score is inactive: 0.051.
As for “CCAAUUUAAGCAGAUGAGCTT against 4930556L07Rik”, the z-score was inactive: 0.63.
The result for “CGUUUCAGAGUGUUUGUGGTT against 1110067D22Rik” reads inactive: 0.41.
As to GGAAAAGAUUGUCUUUGAUTT against Nup133, the z-score was inactive: -0.637.
Regarding GGUGGAACUCGUCAAUAGCTT against Vat1, the z-score is inactive: 0.101.
The result for “GCUGUGAACCUAGAGCGUGTT against 2310066I18Rik” reads inactive: -1.54; that for CCGCCUUCGGGAAUUCUUUTT against Trim25, inactive: 0.0517.
As to GGUGAAGUGUGAAACAAUGTT against Ube2m, the z-score was inactive: -0.923.
With CGAGCUUUGAAAGUUUAAUTT against Pcsk2, the z-score is inactive: 1.12.
As to GCCCAUUUUAGCUAGAAUCTT against Cd300lg, the z-score was inactive: 0.548.
In the case of GCGGUGAUGAGAGAAACCATT against Zfp617, the z-score was inactive: 0.554.
In the case of “CCCACCUUUGGUUCAGAACTT against 1500010J02Rik”, the z-score was inactive: 0.758.
The result for GGGAAGAAAAUGAAAGGUUTT against Cdk5rap2 reads inactive: -1.59.
With GGCAGAAGAAGUGGCCAAGTT against Elk3, the z-score is inactive: -0.927.
